{"source": "PubChem BioAssay AID1259405, NCATS | 2018", "purpose": "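Silenced genes that increase secreted GFP made by CHO cells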 (primary screen)", "system": "Chinese hamster CHO-K1 ovary cells with stable secreted eGFP expression", "knock-down reagent": "single siRNA against mouse genes, 0.8 pmol siRNA per well (2 µl of 400 nM stock)", "timing": "3 days", "detection": "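Percent of the per-plate non-targeting control median for intracellular GFP per well by laser scanning cytometry and for cell viability by ATP luminescence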", "reading the numbers": "GFP, % of control: higher = more GFP per well, higher productivity; viability (ATP), % of control: higher = more viable cells (more ATP)", "hit rule": "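a knock-down is called active if GFP reaches 120% or more of non-targeting control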", "note": "In all, the deposit lists about 50,000 reagents; this is an unselected part. About 4,000 of them (8%) count as active. 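Mouse siRNA library applied to hamster cells; one well for each siRNA.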 Unmarked entries are inactive. Reagents against one gene are numbered here. Reagent sequences are not shown."}
{"Target gene": "Gba2", "siRNA no.": 1, "GFP, % of control": 119, "viability (ATP), % of control": 76.3}
{"Target gene": "Gba2", "siRNA no.": 2, "GFP, % of control": 67.5, "viability (ATP), % of control": 59.4}
{"Target gene": "Gba2", "siRNA no.": 3, "GFP, % of control": 69, "viability (ATP), % of control": 99.2}
{"Target gene": "Taf1d", "siRNA no.": 1, "GFP, % of control": 77, "viability (ATP), % of control": 67.9}
{"Target gene": "Taf1d", "siRNA no.": 2, "GFP, % of control": 69.6, "viability (ATP), % of control": 97.6}
{"Target gene": "Taf1d", "siRNA no.": 3, "GFP, % of control": 75.8, "viability (ATP), % of control": 71.5}
{"Target gene": "Rhox9", "siRNA no.": 1, "GFP, % of control": 113, "viability (ATP), % of control": 129}
{"Target gene": "Rhox9", "siRNA no.": 2, "GFP, % of control": 74.2, "viability (ATP), % of control": 69.1}
{"Target gene": "Rhox9", "siRNA no.": 3, "GFP, % of control": 67.5, "viability (ATP), % of control": 58.2}
{"Target gene": "Tigd5", "siRNA no.": 1, "GFP, % of control": 68.5, "viability (ATP), % of control": 71.1}
{"Target gene": "Tigd5", "siRNA no.": 2, "GFP, % of control": 80.6, "viability (ATP), % of control": 96.2}
{"Target gene": "Elane", "siRNA no.": 1, "GFP, % of control": "122 (active)", "viability (ATP), % of control": 96.6}
{"Target gene": "Elane", "siRNA no.": 2, "GFP, % of control": 66.5, "viability (ATP), % of control": 74.7}
{"Target gene": "Elane", "siRNA no.": 3, "GFP, % of control": 61.1, "viability (ATP), % of control": 45.7}
{"Target gene": "Gbp5", "siRNA no.": 1, "GFP, % of control": 92, "viability (ATP), % of control": 52.8}
{"Target gene": "Gbp5", "siRNA no.": 2, "GFP, % of control": 71.8, "viability (ATP), % of control": 61.5}
{"Target gene": "Gbp5", "siRNA no.": 3, "GFP, % of control": 86.3, "viability (ATP), % of control": 81.5}
{"Target gene": "Capns1", "siRNA no.": 1, "GFP, % of control": 74.6, "viability (ATP), % of control": 94.3}
{"Target gene": "Capns1", "siRNA no.": 2, "GFP, % of control": 45.5, "viability (ATP), % of control": 33.7}
{"Target gene": "Capns1", "siRNA no.": 3, "GFP, % of control": 72.1, "viability (ATP), % of control": 74.4}
{"Target gene": "Swt1", "siRNA no.": 1, "GFP, % of control": 69.1, "viability (ATP), % of control": 80.4}
{"Target gene": "Swt1", "siRNA no.": 2, "GFP, % of control": 53.4, "viability (ATP), % of control": 84.7}
{"Target gene": "Swt1", "siRNA no.": 3, "GFP, % of control": 77.7, "viability (ATP), % of control": 78.1}
{"Target gene": "Mybph", "siRNA no.": 1, "GFP, % of control": 13.2, "viability (ATP), % of control": 45.5}
{"Target gene": "Mybph", "siRNA no.": 2, "GFP, % of control": 75.4, "viability (ATP), % of control": 74.2}
{"Target gene": "Slc4a3", "siRNA no.": 1, "GFP, % of control": 98.8, "viability (ATP), % of control": 40.5}
{"Target gene": "Slc4a3", "siRNA no.": 2, "GFP, % of control": "124 (active)", "viability (ATP), % of control": 67.6}
{"Target gene": "Slc4a3", "siRNA no.": 3, "GFP, % of control": 101, "viability (ATP), % of control": 86.5}
{"Target gene": "Dgkb", "siRNA no.": 1, "GFP, % of control": 66.1, "viability (ATP), % of control": 69.5}
{"Target gene": "Gal", "siRNA no.": 1, "GFP, % of control": 69.3, "viability (ATP), % of control": 72.2}
{"Target gene": "Gal", "siRNA no.": 2, "GFP, % of control": 99, "viability (ATP), % of control": 72.3}
{"Target gene": "Gal", "siRNA no.": 3, "GFP, % of control": 80.5, "viability (ATP), % of control": 61.1}
{"Target gene": "Dohh", "siRNA no.": 1, "GFP, % of control": 99.3, "viability (ATP), % of control": 92.2}
{"Target gene": "Dohh", "siRNA no.": 2, "GFP, % of control": 22.8, "viability (ATP), % of control": 39.8}
{"Target gene": "Dohh", "siRNA no.": 3, "GFP, % of control": 86.4, "viability (ATP), % of control": 91.3}
{"Target gene": "Hal", "siRNA no.": 1, "GFP, % of control": 103, "viability (ATP), % of control": 66}
{"Target gene": "Hal", "siRNA no.": 2, "GFP, % of control": 101, "viability (ATP), % of control": 84.3}
{"Target gene": "Myoc", "siRNA no.": 1, "GFP, % of control": 80.3, "viability (ATP), % of control": 99.4}
{"Target gene": "Myoc", "siRNA no.": 2, "GFP, % of control": 118, "viability (ATP), % of control": 69.8}
{"Target gene": "Myoc", "siRNA no.": 3, "GFP, % of control": 103, "viability (ATP), % of control": 92.2}

4 entries from above, sorted by “viability (ATP), % of control”, high to low.
{"Target gene": "Swt1", "siRNA no.": 2, "GFP, % of control": 53.4, "viability (ATP), % of control": 84.7}
{"Target gene": "Swt1", "siRNA no.": 3, "GFP, % of control": 77.7, "viability (ATP), % of control": 78.1}
{"Target gene": "Mybph", "siRNA no.": 2, "GFP, % of control": 75.4, "viability (ATP), % of control": 74.2}
{"Target gene": "Mybph", "siRNA no.": 1, "GFP, % of control": 13.2, "viability (ATP), % of control": 45.5}
